Experimental data: PubChem BioAssay AID602196 (INSERM, 2012)
Aim: 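Genes whose knock-down alters cisplatin killing of lung cancer cells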. Cells: human A549 lung cancer cells. Knock-down reagent: siRNA pair against human genes. Time to read-out: 48 h transfection before cisplatin; time from cisplatin to read-out not stated. Conditions: cisplatin at a dose killing half of control-siRNA cells; exact dose and duration not given. Detection: 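Shift in cisplatin death relative to control siRNA, from -50 (all cells die) to +50 (no cells die); siRNAs harmful on their own scored 0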. Scale: two-siRNA summed score (-2 to +2): higher = both siRNAs protect from cisplatin killing; -2 means both sensitise; mean protection from cisplatin (shift in death): higher = protection from cisplatin killing. Rule for the call: 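Each siRNA scores 0 if harmful alone by LDH or WST-1, otherwise +1 if it reduces and -1 if it increases cisplatin killing; a gene is active when both siRNAs agree (sum +2 or -2)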. Meaning of the calls: active = both siRNAs shift cisplatin killing the same way; inactive = no consistent shift, or siRNA harmful alone.
Here is a random part of about 23,000 deposited reagents. 455 of them (2%) were called active. 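Active includes both protection and sensitisation; some change values fall well beyond the stated -50 to +50 range.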 Entries without a mark were called inactive. Not all columns of the deposit are shown. No sequences are given here. Not stated in the record: the amount of reagent.

LOC400966 [SID131509876] gave two-siRNA summed score (-2 to +2) = 0; mean protection from cisplatin (shift in death) (%) = 2.6.
Depletion of SIK2 [SID131502459] gave: two-siRNA summed score (-2 to +2) = -1; mean protection from cisplatin (shift in death) (%) = -2.1.
With knock-down of LOC342900 [SID131519778], the record shows two-siRNA summed score (-2 to +2) = 1; mean protection from cisplatin (shift in death) (%) = 7.4.
With knock-down of PARG [SID131508995], the screen gave two-siRNA summed score (-2 to +2) = 0; mean protection from cisplatin (shift in death) (%) = 1.7.
After knock-down of LOC441631 [SID131510354], the record shows two-siRNA summed score (-2 to +2) = 0; mean protection from cisplatin (shift in death) (%) = 3.2.
After knock-down of SPIN2B [SID131512310], the record shows two-siRNA summed score (-2 to +2) = 0; mean protection from cisplatin (shift in death) (%) = 5.3.
For LOC442752 [SID131504719], the values are two-siRNA summed score (-2 to +2) = 0; mean protection from cisplatin (shift in death) (%) = -4.7.
TMEM248 [SID131515820] showed two-siRNA summed score (-2 to +2) = 0; mean protection from cisplatin (shift in death) (%) = 9.7.
After knock-down of RPL35A [SID131517171], the record shows two-siRNA summed score (-2 to +2) = 0; mean protection from cisplatin (shift in death) (%) = 12.6.
CTNNA3 [SID131506999] scored two-siRNA summed score (-2 to +2) = 0; mean protection from cisplatin (shift in death) (%) = -0.7.
PPIAP80 [SID131517774] scored two-siRNA summed score (-2 to +2) = 0; mean protection from cisplatin (shift in death) (%) = 14.7.
LOC201229 [SID131512792] gave two-siRNA summed score (-2 to +2) = 0; mean protection from cisplatin (shift in death) (%) = 5.9.
With knock-down of SMARCE1 [SID131521031] the results were two-siRNA summed score (-2 to +2) = 1; mean protection from cisplatin (shift in death) (%) = 11.9.
Against SRSF2 [SID131517291], the values are two-siRNA summed score (-2 to +2) = 0; mean protection from cisplatin (shift in death) (%) = 12.9.
Knock-down of SOWAHC [SID131509637] resulted in: two-siRNA summed score (-2 to +2) = 0; mean protection from cisplatin (shift in death) (%) = 2.4.
ZNF408 [SID131507978] scored two-siRNA summed score (-2 to +2) = 0; mean protection from cisplatin (shift in death) (%) = 0.5.
PPIA [SID131507609] gave two-siRNA summed score (-2 to +2) = 0; mean protection from cisplatin (shift in death) (%) = 0.1.
TOR1AIP2 [SID131506714] scored two-siRNA summed score (-2 to +2) = 0; mean protection from cisplatin (shift in death) (%) = -1.1.
TOR1AIP2 [SID131509378] showed two-siRNA summed score (-2 to +2) = 0; mean protection from cisplatin (shift in death) (%) = 2.1.
PPIAP72 [SID131522344] showed two-siRNA summed score (-2 to +2) = 1; mean protection from cisplatin (shift in death) (%) = 17.8.
For TARS3 [SID131508803], the entry reads two-siRNA summed score (-2 to +2) = 0; mean protection from cisplatin (shift in death) (%) = 1.5.

Part of the list above in another layout.
PARG [SID131508995]
- two-siRNA summed score (-2 to +2): 0
- mean protection from cisplatin (shift in death) (%): 1.7

LOC441631 [SID131510354]
- two-siRNA summed score (-2 to +2): 0
- mean protection from cisplatin (shift in death) (%): 3.2

SPIN2B [SID131512310]
- two-siRNA summed score (-2 to +2): 0
- mean protection from cisplatin (shift in death) (%): 5.3
